Binding data for one substance are collected here from publication doi:10.1101/2021.07.01.450807.

The chains behind the UniProt entries cited, without tags or fusion partners. Residues count along the entry.
UniProt P02545, residues 66-230: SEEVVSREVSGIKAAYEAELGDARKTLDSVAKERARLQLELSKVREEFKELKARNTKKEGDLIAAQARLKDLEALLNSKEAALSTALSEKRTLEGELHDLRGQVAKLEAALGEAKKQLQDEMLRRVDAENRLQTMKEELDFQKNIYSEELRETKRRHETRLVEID
UniProt P03070, residues 84-708: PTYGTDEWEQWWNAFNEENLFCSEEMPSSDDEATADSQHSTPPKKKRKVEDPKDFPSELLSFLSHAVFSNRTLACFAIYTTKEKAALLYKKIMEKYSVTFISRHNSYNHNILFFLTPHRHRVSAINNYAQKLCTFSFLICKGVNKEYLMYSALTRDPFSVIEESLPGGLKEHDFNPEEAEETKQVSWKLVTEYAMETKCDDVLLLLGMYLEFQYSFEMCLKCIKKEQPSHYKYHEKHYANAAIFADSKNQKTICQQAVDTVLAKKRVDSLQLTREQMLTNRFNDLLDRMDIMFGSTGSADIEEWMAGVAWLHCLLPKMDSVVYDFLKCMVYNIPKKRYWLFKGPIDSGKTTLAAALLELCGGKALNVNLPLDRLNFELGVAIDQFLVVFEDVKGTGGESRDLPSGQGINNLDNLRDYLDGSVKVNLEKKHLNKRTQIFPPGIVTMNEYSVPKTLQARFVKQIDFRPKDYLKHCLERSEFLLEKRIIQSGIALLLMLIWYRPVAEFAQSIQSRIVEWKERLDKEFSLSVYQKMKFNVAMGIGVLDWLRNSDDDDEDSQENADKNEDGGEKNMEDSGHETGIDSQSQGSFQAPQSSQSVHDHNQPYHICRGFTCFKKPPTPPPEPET

No constants are given. Whether binding was seen depends on the method and setting.

The assay concerns the target pGBKT7-Lamin (human lamin C amino acids 66-230) bait fusion (human) (UniProt P02545). The experiment in a line: two-hybrid.

Turning to “pGADT7-Large-T (SV40 large-T antigen amino acids 84-708) prey fusion (from UniProt P03070 84-708) (domain or fragment)”, the binding result is on record as “no binding”.
